Non-standard residues stand in square brackets, D forms with d. *: point of attachment. Tos = Cc1ccc(S(=O)(=O)*)cc1; ClZ = O=C(OCc1ccccc1Cl)*; Abu = CC[C@H](N)C(=O)O; Boc = CC(C)(C)OC(=O)*; OcHex = C1CCC(O*)CC1; OBn = c1ccc(CO*)cc1; Bn = c1ccc(C*)cc1; βAla = NCCC(=O)O
Test: general procedure: solution-phase peptide synthesis; azide method (isoamyl nitrite/HCl-dioxane); OSu active esters; TFA-ONp (p-nitrop)
Conditions: coupling step

Substance | step yield
Boc-Lys(Z)-Leu-Ser(Bzl)-Gln-Glu(OcHex)-Leu-His(Tos)-Lys(Cl-Z)-Leu-Gln-Thr(Bzl)-D-Tyr(Cl2 -Bzl)-Pro-Arg(Tos)-Thr(Bzl)-Asp(OcHex)-Val-Gly-Ala-Gly-Thr(Bzl)-Pro--NH2 | 94.4%
Boc-Lys(Z)-Leu-Ser(Bzl)-Gln-Glu(OcHex)-Leu-His(Tos)-Lys(Cl-Z)-Leu-Gln-Thr(Bzl)-Pro-Arg(Tos)-Thr(Bzl)-Asp(OcHex)-Val-Gly-Ala-Gly-Thr(Bzl)-Pro--NH | 95.0%
Boc-Lys(Z)-Leu-Ser(Bzl)-Gln-Glu(OcHex)-Leu-His(Tos)-Lys(Cl-Z)-Leu-Gln-Thr(Bzl)-Pro-Asn-Thr(Bzl)-Asp(OcHex)-Val-Gly-Ala-Gly-Thr(Bzl)-Pro--NH2 | 63.5%
Boc-Lys(Z)-Leu-Ser(Bzl)-Gln-Glu(OcHex)-Leu-His(Tos)-Lys(Cl-Z)-Leu-Gln-Thr(Bzl)-Tyr(Cl2-Bzl)-Pro-Gln-Thr(Bzl)-Asp(OcHex)-Val-Gly-Ala-Gly-Thr(Bzl)-Pro--NH2 | 91.3%
Boc-Lys(Z)-Leu-Ser(Bzl)-Gln-Glu(OcHex)-Leu-Lys(Cl-Z)-Leu-Gln-Thr(Bzl)-Tyr(Bzl)-Pro-Arg(Tos)-Thr(Bzl)-Asp(OBzl)-Val-Gly-Ala-Gly-Ala-Gly-Thr(Bzl)-Pro-- NH2 | 96.8%
Boc-Lys(Z)-Leu-Ser(Bzl)-Gln-Glu(OcHex)-Leu-Lys(Cl-Z)-Leu-Gln-Thr(Bzl)-Tyr(Cl2-Bzl)-Pro-Gln-Thr(Bzl)-Asp(OcHex)-Val-Gly-Ala-Gly-Thr(Bzl)-Pro--NH2 | 92.0%
Boc-Lys(Z)-Leu-Ser(Bzl)-Gln-Glu(OcHex)-Leu-Tyr(Cl2-Bzl)-Lys(Cl-Z)-Leu-Gln-Thr(Bzl)-Pro-Gln-Thr(Bzl)-Asp(OcHex)-Val-Gly-Ala-Gly-Thr(Bzl)-Pro--NH2 | 91.4%
Boc-NK(ClZ)LQT(Bn)LPQT(Bn)D(OcHex)VGAGT(Bn)P-NH2 | 92.3%
Boc-NK(ClZ)LQT(Bn)PQT(Bn)D(OcHex)VGAGT(Bn)P-NH2 | 81.5%
Boc-NK(ClZ)LQT(Bn)PR(Tos)T(Bn)D(OcHex)VGAGT(Bn)P-NH2 | 94.3%
Boc-NK(ClZ)LQT(Bn)Y(Bn)PR(Tos)T(Bn)D(OBn)VGAGT(Bn)P-NH2 | 94.1%
Boc-NLQT(Bn)PQT(Bn)D(OcHex)VGAGT(Bn)P-NH2 | 71.1%
Boc-NNLQT(Bn)PQT(Bn)D(OcHex)VGAGT(Bn)P-NH2 | 78.1%
Boc-NT(Bn)D(OcHex)VGAGT(Bn)P-NH2 | 92.0%
Boc-QE(OBn)LHGLQT(Bn)PGT(Bn)D(OcHex)VGAGT(Bn)P-NH2 | 75.8%
Boc-QE(OBn)LHK(ClZ)LQT(Bn)LPR(Tos)T(Bn)D(OcHex)VGAGT(Bn)P-NH2 | 71.3%
Boc-QE(OEt)LHK(ClZ)LQT(Bn)PR(Tos)T(Bn)D(OEt)VGAGT(Bn)P-NH2 | 90.9%
Boc-QE(OcHex)LAK(ClZ)LQT(Bn)PR(Tos)T(Bn)D(OcHex)VGAGT(Bn)P-NH2 | 95.9%
Boc-QE(OcHex)LD(OcHex)K(ClZ)LQT(Bn)PQT(Bn)D(OcHex)VGAGT(Bn)P-NH2 | 97.9%
Boc-QE(OcHex)LD(OcHex)K(ClZ)LQT(Bn)PR(Tos)T(Bn)D(OcHex)VGAGT(Bn)P-NH2 | 93.1%
Boc-QE(OcHex)LFK(ClZ)LQT(Bn)PR(Tos)T(Bn)D(OcHex)VGAGT(Bn)P-NH2 | 92.6%

Substance | step yield
Boc-QE(OcHex)LGK(ClZ)LQT(Bn)PNT(Bn)D(OcHex)VGAT(Bn)P-NH2 | 87.6%
Boc-QE(OcHex)LGK(ClZ)LQT(Bn)PQT(Bn)D(OcHex)VGAGT(Bn)P-NH2 | 95.4%
Boc-QE(OcHex)LGK(ClZ)LQT(Bn)Y(Bn)PR(Tos)T(Bn)D(OBn)VGAGT(Bn)P-NH2 | 97.8%
Boc-QE(OcHex)LHGLQT(Bn)PR(Tos)T(Bn)D(OcHex)VGAGT(Bn)P-NH2 | 98.4%
Boc-QE(OcHex)LHK(ClZ)LQT(Bn)PQT(Bn)D(OBn)VGAGT(Bn)P-NH2 | 90.3%
Boc-QE(OcHex)LHK(ClZ)QT(Bn)PR(Tos)T(Bn)D(OcHex)VGAGT(Bn)P-NH2 | 101.2%
Boc-QE(OcHex)LHLQT(Bn)PT(Bn)D(OcHex)VGAGT(Bn)P-NH2 | 90.5%
Boc-QE(OcHex)LK(ClZ)LQT(Bn)PR(Tos)T(Bn)D(OcHex)VGAGT(Bn)P-NH2 | 100.0%
Boc-QE(OcHex)LK(ClZ)LQT(Bn)Y(Bn)PR(Tos)T(Bn)D(OBn)VGAGT(Bn)P-NH2 | 97.8%
Boc-QE(OcHex)LLK(ClZ)LQT(Bn)PQT(Bn)D(OcHex)VGAGT(Bn)P-NH2 | 99.8%
Boc-QE(OcHex)LLK(ClZ)LQT(Bn)PR(Tos)T(Bn)D(OcHex)VGAGT(Bn)P-NH2 | 96.1%
Boc-QE(OcHex)LNK(ClZ)LQT(Bn)PQT(Bn)D(OcHex)VGAGT(Bn)P-NH2 | 96.6%
Boc-QE(OcHex)LNK(ClZ)LQT(Bn)Y(Bn)PR(Tos)T(Bn)D(OBn)VGAGT(Bn)P-NH2 | 96.4%
Boc-QE(OcHex)LNNLQT(Bn)PQT(Bn)D(OcHex)VGAGT(Bn)P-NH2 | 94.5%
Boc-QE(OcHex)LQK(ClZ)LQT(Bn)PNT(Bn)D(OcHex)VGAGT(Bn)P-NH2 | 80.8%
Boc-QK(ClZ)LQT(Bn)PNT(Bn)D(OcHex)VGAGT(Bn)P-NH2 | 83.2%
Boc-QK(ClZ)LQT(Bn)PR(Tos)T(Bn)D(OcHex)VGAGT(Bn)P-NH2 | 98.0%
Boc-QT(Bn)D(OBn)VGAGT(Bn)P-NH2 | 87.9%
Boc-QT(Bn)D(OcHex)VGAGT(Bn)P-NH2 | 92.1%
Boc-QT(Bn)LPQT(Bn)D(OcHex)VGAGT(Bn)P-NH2 | 77.9%
Boc-QT(Bn)LPR(Tos)T(Bn)D(OcHex)VGAGT(Bn)P-NH2 | 86.5%

Substance | step yield
Boc-QT(Bn)PGT(Bn)D(OcHex)VGAGT(Bn)P-NH2 | 83.1%
Boc-QT(Bn)PNT(Bn)D(OcHex)VGAGT(Bn)P-NH2 | 82.3%
Boc-QT(Bn)PQT(Bn)D(OcHex)VGAGT(Bn)P-NH2 | 78.0%
Boc-QT(Bn)PR(Tos)T(Bn)D(OEt)VGAGT(Bn)P-NH2 | 98.8%
Boc-QT(Bn)PR(Tos)T(Bn)D(OcHex)VGAGT(Bn)P-NH2 | 96.5%
Boc-QT(Bn)PT(Bn)D(OBn)VGAGT(Bn)P-NH2 | 93.5%
Boc-R(Tos)T(Bn)D(OEt)VGAGT(Bn)P-NH2 | 94.8%
Boc-R(Tos)T(Bn)D(OcHex)VGAGT(Bn)P-NH2 | 89.7%
Boc-S(Bn)NLS(Bn)T(Bn)D-OEt | 71.4%
Boc-S(Bn)NLS(Bn)T(Bn)E-OBn | 80.5%
Boc-S(Bn)QE(OcHex)L-OH | 44.3%
Boc-S(Bn)QE(OcHex)LGK(ClZ)LQT(Bn)PR(Tos)T(Bn)D(OcHex)VGAGT(Bn)P-NH2 | 92.4%
Boc-S(Bn)QE(OcHex)LNK(ClZ)LQT(Bn)PR(Tos)T(Bn)D(OcHex)VGAGT(Bn)P-NH2 | 95.0%
Boc-Ser Bzl -Gln-Glu(OcHex)-Leu-Asn-Lys(Cl-Z)-Leu-Gln-Thr(Bzl)-Leu-Pro-Gln-Thr(Bzl)-Asp(OcHex)-Val-Gly-Ala-Gly-Thr(Bzl)-Pro--NH2 | 94.7%
Boc-Ser(Bzl)-Asn-Leu azide coupling product | 60.4%
Boc-Ser(Bzl)-Asn-Leu-Ser(Bzl)-Thr(Bzl)-4-CPA--OCH3.1/2H2 O | 76.1%
Boc-Ser(Bzl)-Asn-Leu-Ser(Bzl)-Thr(Bzl)-Cmc--OCH3 | 57.7%
Boc-Ser(Bzl)-Asn-Leu-Ser(Bzl)-Thr(Bzl)-Cpc--OCH3 | 73.6%
Boc-Ser(Bzl)-Asn-Leu-Ser(Bzl)-Thr(Bzl)-Tyr(CH2 COOH)--OCH3 | 63.8%
Boc-T(Bn)D(OEt)VGAGT(Bn)P-NH2 | 81.4%
Boc-T(Bn)D(OcHex)VGAGT(Bn)P-NH2 | 84.5%

Substance | step yield
Boc-T(Bn)LPR(Tos)T(Bn)D(OcHex)VGAGT(Bn)P-NH2 | 84.9%
Boc-T(Bn)PGT(Bn)D(OcHex)VGAGT(Bn)P-NH2 | 80.6%
Boc-T(Bn)PNT(Bn)D(OcHex)VGAGT(Bn)P-NH2 | 87.5%
Boc-T(Bn)PQT(Bn)D(OBn)VGAGT(Bn)P-NH2 | 85.4%
Boc-T(Bn)PQT(Bn)D(OcHex)VGAGT(Bn)P-NH2 | 89.9%
Boc-T(Bn)PR(Tos)T(Bn)D(OcHex)VGAGT(Bn)P-NH2 | 82.8%
Boc-T(Bn)PT(Bn)D(OBn)VGAGT(Bn)P-NH2 | 93.9%
Boc-Thr(Bzl)-D-Tyr(Cl2 -Bzl)-Pro-Arg(Tos)-Thr(Bzl)-Asp(OcHex)-Val-Gly-Ala-Gly-Thr(Bzl)-Pro--NH2 | 71.8%
Boc-Thr(Bzl)-Leu-Pro-Gln-Thr(Bzl)-Asp(OcHex)-Val-Gly-Ala-Gly-Thr(Bzl)-Pro- -NH2 | 85.0%
Boc-Thr(Bzl)-Pro-Arg(Tos)-Thr(Bzl)-Asp(OEt)-Val-Gly-Ala-Gly-Thr(Bzl)-Pro-- NH2 | 88.5%
Boc-Thr(Bzl)-Tyr(Cl2 -Bzl)-Pro-Arg(Tos)-Thr(Bzl)-Asp(OBzl)-Val-Gly-Ala-Gly-Thr(Bzl)-Pro--NH2 | 94.9%
Boc-Thr(Bzl)-Tyr(Cl2 -Bzl)-Pro-Gln-Thr(Bzl)-Asp(OcHex)-Val-Gly-Ala-Gly-Thr(Bzl)-Pro--NH2 | 96.2%
Boc-Tyr(Cl2 -Bzl)-Lys(Cl-Z)-Leu-Gln-Thr(Bzl)-Pro-Gln-Thr(Bzl)-Asp(OcHex)-Val-Gly-Ala-Gly-Thr(Bzl)-Pro--NH2 | 88.9%
Boc-[Abu]S(Bn)NL-OEt | 84.0%
Boc-[Abu]S(Bn)NLS(Bn)T(Bn)D-OEt | 55.3%
Boc-β-Ala-Asn-Leu-Ser(Bzl)-Thr(Bzl)-Cec--OCH3 | 60.9%
{Boc-βAla-βAla}-Asn-Leu-OEt | 62.0%
{Boc-βAla-βAla}-NLS(Bn)T(Bn)D-OEt | 98.8%
{Boc-βAla}-S(Bn)NLS(Bn)T(Bn)E-OMe | 63.7%
{Boc-βAla}-Ser(Bn)-Asn-Leu-OEt | 68.6%

Same assay, conditions: late stage modification step

Substance | step yield
Boc-β-Ala-β-Ala-Asn-Leu-N2 H3 | 87.9%
β-Ala-Ser(Bzl)-Asn-Leu-Ser(Bzl)-Thr(Bzl)-Glu--N2 H3 | 100%

From patent US5162305 (dated 1992)
